Measured values from PubChem BioAssay AID540256 (National Center for Advancing Translational Sciences (NCATS), 2011).
Hit rate of the full screen: of about 300,000 compounds, about 3,700 (1.2%) were called active. Inconclusive means that the source gave no clear call. Such entries were picked first, then a sample of the others. The call rests on the fitted dose curve; tested in HEK293 cells. Potencies beside an inconclusive call are fits to weak or partial responses and may not hold up.

Assay: qHTS for Inhibitors of binding or entry into cells for Lassa Virus; further: nearly all actives have a fitted effect of over 50% in size
Conditions: Lassa virus pseudotype entry inhibition, cell reporter; activity change, negative = inhibition: at 37.9 µM (top of the series) unless noted
On the % scale 0 is the no-effect control and ±100 the full control effect; potency means the concentration at half of the fitted maximal effect.

Q: For `Cc1nn(C)c(C)c1CNC(=O)c1cnn2c1NC(c1ccccc1)CC2C(F)(F)F` (stereo not given), which “activity change, negative = inhibition” value is on record?
A: inactive: -17.6%

Q: Which “activity change, negative = inhibition” value does the source give for `CCc1ccc(NC(=O)CC2C(=O)N(c3ccc(Cl)cc3)C(=O)N2Cc2cccs2)cc1` (stereo not given) here?
A: inactive: -9.82% [at 46.1 µM]

Q: For `O=C(O)c1ccccc1SCc1ccc2c(c1)OCO2`, which Potency is on record?
A: inconclusive: 35.5 µM [activator, single point]

Q: With `Cc1ccc(C(=O)NN(C)c2nc3ccccc3nc2C(F)(F)F)cc1` as the compound, how does the Potency read?
A: inconclusive: 3.16 µM [inhibitor, single point]

Q: With `COc1ccc2c(c1)CCc1cnoc1-2` as the compound, how does the “activity change, negative = inhibition” value read?
A: inactive: 29.2%

Q: With `N#Cc1cc2cc3c(cc2nc1SCC(=O)N1CCCC1)OCCO3` as the compound, how does the Potency read?
A: inconclusive: 0.794 µM [activator, full curve, poor fit]

Q: For `S=P(N1CCCCCC1)(N1CC1)N1CC1`, which Potency is on record?
A: inconclusive: 11.2 µM [inhibitor, single point]

Q: With `O=C(CSc1nc2ccccc2s1)N1N=C(c2cccs2)CC1c1ccc(F)cc1` (stereo not given) as the compound, how does the “activity change, negative = inhibition” value read?
A: inactive: -11.2%

Q: For `COC(=O)c1ccc(COc2ccc(C#N)cc2)o1`, which Potency is on record?
A: inconclusive: 0.631 µM [inhibitor, single point]

Q: Which “activity change, negative = inhibition” value does the source give for `COn1c(-c2ccc(Cl)cc2)nc2ccc(Cl)cc21` here?
A: inactive: 9.21%

Q: With `O=C(OCC(=O)N1CCC(Cc2ccccc2)CC1)c1cc(Cl)ccc1O` as the compound, how does the Potency read?
A: inconclusive: 1.26 µM [inhibitor, single point]

Q: With `Cc1c(Cl)sn(-c2ccc(Cl)cc2)c1=O` as the compound, how does the Potency read?
A: active: 9.2 µM

Q: Which Potency does the source give for `CCCCN(CC)CCNS(=O)(=O)c1ccc2c(c1)oc(=O)n2C` here?
A: inconclusive: 1.16 µM [inhibitor, single point]

Q: With `O=C1OC(c2ccccc2)=N/C1=C\N1CCCCC1` as the compound, how does the “activity change, negative = inhibition” value read?
A: inactive: 0.306%

Q: With `O=C(CCN1C(=O)/C(=C/c2ccccc2)SC1=S)Nc1cccnc1` as the compound, how does the Potency read?
A: inconclusive: 0.708 µM [inhibitor, single point]

Q: For `Cc1cc(NC(=O)COC(=O)COc2ccc3c4c(c(=O)oc3c2)CCC4)no1`, which “activity change, negative = inhibition” value is on record?
A: inactive: 0.671%

Q: With `Cc1ccc2[nH]cc(C(=O)CCl)c2c1` as the compound, how does the Potency read?
A: inconclusive: 15.8 µM [inhibitor, single point]

Q: For `CC(C)(C)c1csc(NC(=O)CSc2nc3ccccc3c(=O)[nH]2)n1`, which “activity change, negative = inhibition” value is on record?
A: inactive: 8.53%

Q: For `COc1ccc(CCNC(=O)c2c(N)n(CCN3CCOCC3)c3nc4ccccc4nc23)cc1`, which Potency is on record?
A: inconclusive: 14.1 µM [inhibitor, partial curve, poor fit]

Q: For `O=C(NC(=S)N1CCN(C/C=C/c2ccccc2)CC1)c1ccc(F)cc1`, which Potency is on record?
A: inconclusive: 35.5 µM [inhibitor, single point]

Q: For `COC(=O)C1C2c3ccccc3OC1(C)N=c1s/c(=C/c3cn(C)nc3C)c(=O)n12` (stereo not given), which Potency is on record?
A: inconclusive: 1.26 µM [inhibitor, full curve, poor fit]

Q: For `COC(=O)/C(=C\C(=O)c1ccccc1)Nc1cccc(C(F)(F)F)c1`, which “activity change, negative = inhibition” value is on record?
A: inactive: 18.9%

Q: With `O=C1NC(=O)C(Cc2ccccc2)(Cc2ccccc2)C(=O)N1Cc1ccccc1` as the compound, how does the Potency read?
A: inconclusive: 15.8 µM [inhibitor, partial curve, poor fit]

Q: Which Potency does the source give for `COc1ccccc1NC(=O)c1oc2ccccc2c1NC(=O)c1ccccc1C(F)(F)F` here?
A: inconclusive: 35.5 µM [inhibitor, single point]

Q: With `COc1ccc(C2C=C(C34CC5CC(CC(C5)C3)C4)NC(=S)N2)cc1` (stereo not given) as the compound, how does the Potency read?
A: inconclusive: 20.6 µM [inhibitor, partial curve, poor fit]

Q: For `CCCCNS(=O)(=O)c1ccc(NC(=O)C(Sc2ccccc2)c2ccccc2)cc1` (stereo not given), which Potency is on record?
A: active: 9.2 µM

Q: For `Cc1nc2c(C)cccn2c1/C(O)=C1\C(=O)C(=O)N(CCN(C)C)C1c1ccco1` (stereo not given), which Potency is on record?
A: inconclusive: 10 µM [activator, single point]

Q: Which Potency does the source give for `COCCn1c(=NC(=O)CN2C(=O)CCC2=O)sc2cc(S(N)(=O)=O)ccc21` here?
A: inconclusive: 0.0891 µM [inhibitor, full curve, poor fit]

Q: Which Potency does the source give for `CCCCn1c(O)c(C(C)=Nc2ccc3c(c2)CCC3)c(=O)[nH]c1=O` here?
A: inconclusive: 6.31 µM [inhibitor, full curve, poor fit]

Q: Which Potency does the source give for `Cc1ccc(C2(C)NC(=O)N(CC(=O)Nc3cc(S(=O)(=O)N(C)C)ccc3C)C2=O)cc1` (stereo not given) here?
A: inconclusive: 8.91 µM [inhibitor, partial curve]

Q: For `O=C(Cn1ncc2c3ccccc3n(Cc3ccc(Cl)cc3)c2c1=O)NCc1cccs1`, which “activity change, negative = inhibition” value is on record?
A: inactive: 16.8% [at 46.1 µM]

Q: For `CS(=O)(=O)N(Cc1ccc(C(=O)Nc2ccccc2Sc2ccccc2)cc1)c1ccccc1`, which Potency is on record?
A: inconclusive: 4.47 µM [inhibitor, partial curve, poor fit]

Q: Which “activity change, negative = inhibition” value does the source give for `Cc1cc(/C([O-])=C(/C(=S)Nc2ccccc2)[n+]2ccccc2)c(C)n1-c1ccccc1` here?
A: inactive: 15.5%

Q: Which Potency does the source give for `COc1cc(NC(=O)c2cccc([N+](=O)[O-])c2C)ccc1NC(=O)c1ccco1` here?
A: inconclusive: 18.4 µM [activator, single point]

Q: With `Cc1cc(SCC(=O)O)nc2ccccc12` as the compound, how does the Potency read?
A: inactive

Q: Which Potency does the source give for `CCCNC(=O)N(CCOC)CC1CCCN(C2Cc3ccccc3C2)C1` (stereo not given) here?
A: inconclusive: 14.1 µM [activator, partial curve, poor fit]

Q: For `O=C(CCNC(=O)c1ccc(Cl)cc1)NCCC1=CCCCC1`, which Potency is on record?
A: inconclusive: 2.82 µM [activator, partial curve, poor fit]

Q: For `CC(C)CC1C(=O)N(Cc2cn(CCC3OCCO3)nn2)CCS(=O)(=O)N1Cc1ccc(-c2ccc(Cl)c(Cl)c2)cc1` (stereo not given), which Potency is on record?
A: inconclusive: 0.001 µM [inhibitor, full curve, poor fit]

Q: Which “activity change, negative = inhibition” value does the source give for `Cc1ccc(C)c(Cn2c(=O)n(Cc3ccc4c(c3)OCO4)c(=O)c3oc4ccccc4c32)c1` here?
A: inactive: 14.7% [at 46.1 µM]

Q: Which “activity change, negative = inhibition” value does the source give for `CCCN1C(=O)c2ccccc2NC1c1ccc(OC)cc1OC` (stereo not given) here?
A: inactive: 4.72%

Q: Which Potency does the source give for `CCNC(=O)CN1c2cccc3cccc(c23)S1(=O)=O` here?
A: inconclusive: 20 µM [activator, single point]

Q: With `COc1cc(OC)cc(C(=O)NNC(=O)Cc2ccc(OC)c(S(=O)(=O)N3CCOCC3)c2)c1` as the compound, how does the “activity change, negative = inhibition” value read?
A: inactive: 1.28%

Q: Which Potency does the source give for `C(=N\Nc1nc2ccccc2[nH]1)/c1cccc2nccnc12` here?
A: inconclusive: 5.62 µM [inhibitor, single point]

Q: For `Cc1cc(=O)[nH]n(CCO)c1=O`, which “activity change, negative = inhibition” value is on record?
A: inactive: 2.33%

Q: Which “activity change, negative = inhibition” value does the source give for `COC(=O)c1ccc(NC(=O)CC2C(=O)N(c3ccc(F)cc3)C(=O)N2Cc2ccc(OC)cc2)cc1` (stereo not given) here?
A: inactive: 1.78% [at 46.1 µM]
